Holding throughout (assay): log2 fold change, soluble protein after heating vs DMSO (PISA); higher = thermal stabilisation; K562 lysate, 10 uM; active = over 0.2 and 3.5 SD of the protein, either way, in both replicates (recomputed)
Compound in assay [1]: NCC(=O)Nc1ccc(-n2nc(C(F)(F)F)cc2-c2ccc3c(ccc4ccccc43)c2)cc1
Summed up: (§1)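 K562 pellets were dounce-homogenised in PBS pH 7.4 containing 1 mM MgCl2, and the crude extract, at 1 mg/mL protein, was exposed to 10 μM compound for 30 min. Aliquots were heated for 3 min across 48°C-58°C, pooled, brought to 0.5% NP-40 at 4°C and spun at 21,000xg for 90 min, with the supernatant taken as soluble protein. TMTpro 16plex LC-MS/MS with equalised channel sums quantified that protein. Values are log-two fold changes in thermal stability relative to solvent controls, taken from duplicates.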

Protein sequences, listed by entry. Tags and fused reporters are not part of them. Lines headed by an entry give the natural chain unless they say otherwise; changes in a name come on top.
UniProt Q92597: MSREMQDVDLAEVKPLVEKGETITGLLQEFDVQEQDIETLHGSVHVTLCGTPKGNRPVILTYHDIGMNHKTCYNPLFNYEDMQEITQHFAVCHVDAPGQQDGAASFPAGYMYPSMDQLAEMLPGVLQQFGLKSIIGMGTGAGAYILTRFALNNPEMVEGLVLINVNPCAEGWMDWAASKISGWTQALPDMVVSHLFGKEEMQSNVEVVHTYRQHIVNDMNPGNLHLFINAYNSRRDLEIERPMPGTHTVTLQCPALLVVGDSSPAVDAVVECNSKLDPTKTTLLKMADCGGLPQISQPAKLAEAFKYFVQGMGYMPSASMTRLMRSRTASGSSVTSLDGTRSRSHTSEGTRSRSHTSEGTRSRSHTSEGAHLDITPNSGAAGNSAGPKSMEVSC
UniProt P51970, whole entry, looked up: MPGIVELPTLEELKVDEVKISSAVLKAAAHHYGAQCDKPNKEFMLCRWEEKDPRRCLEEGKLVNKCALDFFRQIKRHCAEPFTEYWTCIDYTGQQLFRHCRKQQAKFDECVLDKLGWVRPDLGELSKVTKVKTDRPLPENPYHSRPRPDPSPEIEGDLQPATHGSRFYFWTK
UniProt Q9UMX5: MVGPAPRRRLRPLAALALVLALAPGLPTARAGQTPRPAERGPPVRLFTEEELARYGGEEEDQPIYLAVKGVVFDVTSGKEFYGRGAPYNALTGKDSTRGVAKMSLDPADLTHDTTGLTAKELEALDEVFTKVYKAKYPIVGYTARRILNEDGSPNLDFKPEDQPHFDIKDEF
UniProt Q9BS92: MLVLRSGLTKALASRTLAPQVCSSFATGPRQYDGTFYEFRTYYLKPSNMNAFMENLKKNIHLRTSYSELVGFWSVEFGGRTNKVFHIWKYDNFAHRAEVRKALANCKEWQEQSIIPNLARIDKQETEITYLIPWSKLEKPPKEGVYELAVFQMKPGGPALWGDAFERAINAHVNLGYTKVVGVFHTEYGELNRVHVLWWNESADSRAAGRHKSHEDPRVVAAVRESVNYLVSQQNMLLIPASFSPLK
UniProt Q12857, whole entry, looked up: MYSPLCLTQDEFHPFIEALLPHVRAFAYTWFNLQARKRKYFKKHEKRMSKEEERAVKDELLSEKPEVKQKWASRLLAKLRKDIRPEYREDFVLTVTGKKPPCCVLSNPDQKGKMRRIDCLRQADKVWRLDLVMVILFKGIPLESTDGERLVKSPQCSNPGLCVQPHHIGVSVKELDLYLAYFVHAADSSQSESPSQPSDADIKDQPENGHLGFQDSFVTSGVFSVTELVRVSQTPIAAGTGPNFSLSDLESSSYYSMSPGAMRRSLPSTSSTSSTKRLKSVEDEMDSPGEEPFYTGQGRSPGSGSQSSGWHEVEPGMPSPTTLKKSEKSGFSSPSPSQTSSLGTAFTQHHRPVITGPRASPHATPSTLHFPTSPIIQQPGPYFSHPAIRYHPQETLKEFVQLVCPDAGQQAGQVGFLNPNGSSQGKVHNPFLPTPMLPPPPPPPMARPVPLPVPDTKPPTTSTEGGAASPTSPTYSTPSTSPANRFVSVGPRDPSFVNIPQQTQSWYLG
UniProt Q9NQR4: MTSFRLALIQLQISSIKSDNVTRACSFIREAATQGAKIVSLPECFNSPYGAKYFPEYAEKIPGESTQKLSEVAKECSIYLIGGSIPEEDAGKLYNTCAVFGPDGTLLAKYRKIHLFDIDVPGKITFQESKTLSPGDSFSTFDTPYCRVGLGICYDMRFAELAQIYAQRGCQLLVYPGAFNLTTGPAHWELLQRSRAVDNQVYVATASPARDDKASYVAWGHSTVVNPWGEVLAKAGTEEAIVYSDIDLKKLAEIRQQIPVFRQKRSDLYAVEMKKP
UniProt Q7RTP0: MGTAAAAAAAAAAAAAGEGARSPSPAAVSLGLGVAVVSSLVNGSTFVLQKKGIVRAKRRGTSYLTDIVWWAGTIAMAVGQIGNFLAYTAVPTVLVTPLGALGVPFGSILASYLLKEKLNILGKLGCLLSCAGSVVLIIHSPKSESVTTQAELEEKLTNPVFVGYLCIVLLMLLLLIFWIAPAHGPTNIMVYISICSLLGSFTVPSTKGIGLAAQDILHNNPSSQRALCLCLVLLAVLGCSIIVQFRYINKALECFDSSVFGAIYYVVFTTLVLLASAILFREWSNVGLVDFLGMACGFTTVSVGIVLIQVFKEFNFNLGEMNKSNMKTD
UniProt Q9UN36: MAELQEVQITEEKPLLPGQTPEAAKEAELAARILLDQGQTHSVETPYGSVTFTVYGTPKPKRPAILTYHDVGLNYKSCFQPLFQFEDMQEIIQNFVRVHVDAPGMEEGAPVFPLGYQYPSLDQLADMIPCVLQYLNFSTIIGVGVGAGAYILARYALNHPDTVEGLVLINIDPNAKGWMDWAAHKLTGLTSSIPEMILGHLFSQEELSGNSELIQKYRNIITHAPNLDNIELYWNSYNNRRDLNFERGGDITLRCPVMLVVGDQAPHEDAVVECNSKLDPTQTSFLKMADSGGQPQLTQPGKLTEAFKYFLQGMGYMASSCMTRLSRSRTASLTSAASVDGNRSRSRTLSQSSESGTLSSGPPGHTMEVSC

Compound in assay [2]: O=C(CCCCCCC(=O)Nc1ccccc1)NO [vorinostat]
The essentials: as §1

Compound in assay [3]: O=C(O)c1ccc2c(c1)nc(Nc1cccc(Cl)c1)c1ccncc12 [silmitasertib]
The essentials:
as §1

Compound in assay [4]: O=C1NC(=O)C(c2cnc3ccccn23)=C1c1cn2c3c(cc(F)cc13)CN(C(=O)N1CCCCC1)CC2
Summed up: as §1

Compound in assay [5]: c1cn2cc(-c3ccc4cn[nH]c4c3)nc(Nc3ccc(N4CCOCC4)cc3)c2n1 [entospletinib]
The essentials:
as §1

Some of the results follow.

Drawing on the supplement of paper PMC10849652, this text covers log2 fold change for ten targets.

For the target NEU4 (UniProt C9JEA3), the log2 fold change in assay [1] is inactive: 0.014; in assay [2], inactive: -0.06; in assay [3], inactive: 0.027; in assay [4] it was inactive: -0.219.
As for NEB isoform 3 (UniProt P20929), the log2 fold change is inactive: 0.157 in assay [1], inactive: -0.057 in assay [2], inactive: -0.059 in assay [3] and inactive: 0.044 in assay [4].
For NDRG1 (UniProt Q92597), the log2 fold change in assay [1] was inactive: -0.099; in assay [2], inactive: -0.019; in assay [3] it was inactive: 0.12; in assay [4], inactive: -0.059.
As for NDUFA8 (UniProt P51970), the log2 fold change is inactive: -0.009 in assay [1]; inactive: 0.112 in assay [2]; inactive: -0.006 in assay [3]; inactive: -0.026 in assay [4]; inactive: -0.122 in assay [5].
Take NENF (UniProt Q9UMX5): the log2 fold change is inactive: 0.01 in assay [1]; inactive: 0.142 in assay [2]; inactive: -0.018 in assay [3]; inactive: 0.006 in assay [4]; inactive: -0.031 in assay [5].
Take NIPSNAP3B (UniProt Q9BS92): the log2 fold change was inactive: -0.083 in assay [1]; inactive: 0.129 in assay [2]; inactive: -0.047 in assay [3]; inactive: 0.116 in assay [4]; inactive: 0.15 in assay [5].
On to NFIA isoform 4 (UniProt Q12857), for which the log2 fold change in assay [1] was inactive: -0.044; in assay [2], inactive: -0.088; in assay [3] it was inactive: -0.015; in assay [4] it was inactive: 0.026.
Consider NIT2 (UniProt Q9NQR4), for which the log2 fold change in assay [1] was inactive: -0.001; in assay [2], active: 0.346; in assay [3], inactive: -0.001; in assay [4], inactive: -0.007; in assay [5], inactive: 0.004.
NIPA1 (UniProt Q7RTP0): the log2 fold change in assay [1] is inactive: 0.048; in assay [2], inactive: -0.093; in assay [3], inactive: 0.028; in assay [4], inactive: 0.057.
As for NDRG2 (UniProt Q9UN36), the log2 fold change in assay [1] is inactive: 0.01; in assay [2] it was inactive: 0.021; in assay [3], inactive: -0.026; in assay [4], inactive: 0.026; in assay [5], inactive: -0.001.
